Library screen at single concentrations

Data taken from ChEMBL document CHEMBL3988442, “University of Dundee, Small-Polar-MMV Screening Library” (2021).

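Assay of Toxoplasma gondii numbers, read through their beta-galactosidase reporter with a colour substrate. Tested at 50 µM. Higher reads as fewer parasites (inferred from which compounds were picked for retests). About 18,000 compounds were tested under these conditions; 0.94% (about 170) showed 50% or more at least once.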

The filed quantity is “Percent Effect” (%).
How 0% and 100% were set is not recorded. Most values in the screen are low, and negative values occur.
Compounds were drawn at random from those tested, without regard to their results.

| SMILES | effect |
|---|---|
| `O=C(C1CCC1)N(C1CC1)C1CCS(=O)(=O)C1` (stereo not shown) | -5.093 |
| `Cc1c2c(nc3ccccc13)CCNC2=O` | -2.431 |
| `CCN(CC)C(=O)c1ccccc1N(C)S(C)(=O)=O` | -4.295 |
| `COCCN(CCN(C)C)C(=O)c1cncc(Br)c1` | 1.816 |
| `CC(CO)Sc1ccc(S(=O)(=O)C(F)F)cc1` (stereo not shown) | 19.63 |
| `CC(OC(=O)c1ccn2cncc2c1)C(=O)NC1CC1` (stereo not shown) | -3.627 |
| `Cn1cc(Br)cc(NC(=O)COc2ccccc2)c1=O` | -3.875 |
| `Cc1cccc(CN2CCC(C(=O)N(C)C)CC2)c1` | -6.079 |
| `CNS(=O)(=O)c1ccc(C(=O)NCc2ccccc2)o1` | 4.555 |
| `NCCS(=O)(=O)Cc1ccccc1` | 4.163 |
| `CCNC(=O)c1ccc(CNC(C)=O)cc1` | 9.683 |
| `N[C@H]1CN(S(=O)(=O)N2CCOCC2)C[C@@H]1C1CC1` | -15.77 |
| `CN1N=C(C(=O)NCc2ccc(Cl)cc2)CCC1=O` | 0.1083 |
| `CN(Cc1ccco1)C(=O)CCc1ccc(C#N)cc1` | -5.488 |
| `N#CCCNCc1ccco1` | 5.72 |
| `NS(=O)(=O)CC1Cc2ccccc2C1` | -0.2164 |
| `Cc1[nH]nc(C(N)=O)c1NC(=O)c1cc(F)cc(Br)c1` | -7.569 |
| `Cc1cccn(Cc2nc(-c3ccccn3)no2)c1=O` | -1.929 |
| `Cc1cccc(NC(=O)c2ccc(=O)n(C)c2)c1C` | -1.316 |
| `Cc1ccc(NC(=O)CCS(C)(=O)=O)c(CN(C)C)c1` | -13.2 |
| `OCCCn1nnc(-c2ccccc2)n1` | 1.208 |
| `CS(=O)(=O)N1CCC(CN)C1` (stereo not shown) | 0.02635 |
| `CCn1nc(-c2ccc(F)cc2)oc1=O` | 44.5 |
| `NCCNC(=O)c1nc(Cn2cc(Br)cn2)no1` | -47.42 |
| `CCCC(=O)NC1CCNC2(CCC2)C1` (stereo not shown) | -9.579 |
| `Cc1cccc(CNC(C)(CO)CO)c1C` | 2.663 |
| `Cc1nnsc1CN(C)Cc1ccc(N(C)C)nc1` | 1.401 |
| `CC[C@@H](O)CNC(C)c1ccncc1` (stereo partly shown) | 7.159 |
| `OCC1CCN(C2CCCNC2)CC1` (stereo not shown) | 3.811 |
| `CCCS(=O)(=O)NCCN1CCC(CO)CC1` | -2.684 |
| `CS(=O)(=O)N1CCN(CCCOc2ccccc2)CC1` | -22.1 |
| `CN(CC(=O)NC(C)(C)C)C(=O)CCc1ccco1` | -5.847 |
| `CC(C)(C)NC(=O)c1ccc(CN2CCCC2)cc1` | -34.41 |
| `COc1ccccc1NCC(=O)NCc1cnn(C)c1` | 5.207 |
| `OCc1cncc(C(F)(F)F)c1` | 10.71 |
| `COc1ccc(C(=O)NC2CCN(C)CC2)c(OC)c1` | 2.879 |
| `CCCNC(=O)C(C)N(C)CCN1CCCC1=O` (stereo not shown) | 17.6 |
| `N#Cc1c[nH]c(C(=O)NCCCNC2CCCCC2)c1` | -8.863 |
| `CC(C)Cn1c(=O)c(C#N)cn(C2CC2)c1=O` | 1.431 |
| `c1ccc(CNc2cc(-n3cccn3)ncn2)cc1` | 5.357 |
| `O=C1c2ccc(Cl)cc2C(=O)N1c1cccnc1` | -7.448 |
| `O=C(Nc1ccccc1)N1CCCOCC1` | 9.882 |
| `O=C([C@@H]1CCCO1)N(CCO)Cc1cccc(Cl)c1` | 7.358 |
| `CCOc1ccc(NC(=O)N[C@@H]2CNCC[C@H]2O)cc1` | 10.5 |
| `CNCC(=O)Nc1ccc(Br)cn1` | 21.27 |
| `C=C(C)CN(CC)CC(=O)NCc1ccccn1` | 17.67 |
| `Cc1ccc(S(=O)(=O)NCCCN)c2cccnc12` | -4.515 |
| `CS(=O)(=O)NCC1CCCN(Cc2cccnc2N)C1` (stereo not shown) | 0.6425 |
| `O=C(C1CCCNC1)N1CCCC1` (stereo not shown) | -17.86 |
| `CCC(C)(C)NC(=O)CS(=O)(=O)c1ccccn1` | 1.682 |
| `COc1c(CNc2ccc(F)cn2)c(C)nn1C` | 1.417 |
| `COc1cccc(NC(=O)C(C)S(C)(=O)=O)c1` (stereo not shown) | -0.6376 |
| `Cc1nn(-c2ccc(F)cc2)c(Cl)c1C(=O)N(C)C` | -9.982 |
| `COc1ccc(NCCCO)cc1` | -3.735 |
| `COc1cc(CN(CCO)CCO)cc2c1OCO2` | 13.92 |
| `COCCC(=O)N(C)C(C)Cc1ncccc1C` (stereo not shown) | -3.603 |
| `COC(=O)C1CCCCN1C(=O)c1cccn1C` (stereo not shown) | -0.05488 |
| `CC1(C)CNCCC(=O)C1` | -1.716 |
| `c1nc2c([nH]1)C1(CCC1)NCC2` | -9.533 |
| `OCCCN(CCO)Cc1c(Cl)ccc2cccnc12` | 2.915 |
| `CCc1nc(CNCC2CCN(CCO)CC2)no1` | 8.406 |
| `Cc1cc(C(=O)Nc2cn(C)cc(Br)c2=O)[nH]n1` | -6.695 |
| `CCc1nnc(NC2CCOC3(CCOCC3)C2)o1` (stereo not shown) | -27.83 |
| `NC(=O)COC(=O)c1cnn(-c2cccc(Br)c2)c1` | -1.989 |

Some entries from above, unchanged:

- CCc1nnc(NC2CCOC3(CCOCC3)C2)o1 (stereo not shown) : -27.83%
- Cc1nnsc1CN(C)Cc1ccc(N(C)C)nc1 : 1.401%
- Cc1nn(-c2ccc(F)cc2)c(Cl)c1C(=O)N(C)C : -9.982%
- CS(=O)(=O)NCC1CCCN(Cc2cccnc2N)C1 (stereo not shown) : 0.6425%